{"source": "the supplement of paper PMC4807443", "note": "Counter-ions that a name gives are not always drawn. This is one part of the list. The numbers are fractions of the control, whatever unit the source prints. Most values lie at the level of the controls, where differences are scatter.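 MIN6 is a mouse insulinoma beta-cell line that stably carries a lentiviral reporter in which the Pdx1 and Ins1 promoters each drive a nucleus-targeted fluorescent protein; cells were counted by automated imaging with a Hoechst nuclear stain. In the screen, a drug was a possible hit when its Ins1 promoter readout lay beyond two median absolute deviations from the DMSO controls while Pdx1 activity stayed near normal.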"}
{"system": "MIN6", "test": "% Pdx1+ Ins1-low (RFP-only, immature) cells relative to DMSO control (fold of DMSO control); higher = more immature Pdx1+/Ins1-low cells", "conditions": "8.5 µM; 48 h; glucose 5 mM"}
{"smiles": "O=C(NCCNCC(O)COc1ccc(O)cc1)N1CCOCC1", "note": "(stereo unspecified) [Xamoterol hemifumarate]", "% Pdx1+ Ins1-low": 1.43}
{"smiles": "CC(C)N1CCN(c2ccc(OCC3COC(Cn4cncn4)(c4ccc(Cl)cc4Cl)O3)cc2)CC1", "note": "(stereo unspecified) [Terconazole]", "% Pdx1+ Ins1-low": 0.76}
{"smiles": "COc1ccc2[nH]cc(CCNC(C)=O)c2c1", "note": "[Melatonin]", "% Pdx1+ Ins1-low": 1.67}
{"smiles": "NC[C@H]1O[C@H](O[C@H]2[C@H](O[C@@H]3O[C@H](CO)[C@@H](O)[C@H]3O)[C@@H](O)[C@H](N)C[C@@H]2N)[C@H](N)[C@@H](O)[C@@H]1O", "note": "[Ribostamycin sulfate salt]", "% Pdx1+ Ins1-low": 0.903}
{"smiles": "COc1ccc(C(=O)NCc2cccnc2)cc1C(=O)NCc1cccnc1", "note": "[Picotamide monohydrate]", "% Pdx1+ Ins1-low": 0.859}
{"smiles": "O=c1c(O)c(-c2cc(O)c(O)c(O)c2)oc2cc(O)cc(O)c12", "note": "[Myricetin]", "% Pdx1+ Ins1-low": 1}
{"smiles": "CC(=O)N[C@@H](CC(=O)N[C@@H](CCC(=O)O)C(=O)O)C(=O)O", "note": "[Spaglumic acid]", "% Pdx1+ Ins1-low": 0.701}
{"smiles": "COc1ccc(-c2cc(=O)c3c(O)cc(O)cc3o2)cc1", "note": "[Acacetin]", "% Pdx1+ Ins1-low": 0.81}
{"smiles": "Cc1ccc(S(=O)(=O)NC(=O)NN2CC3CCCC3C2)cc1", "note": "(stereo unspecified) [Gliclazide]", "% Pdx1+ Ins1-low": 0.867}
{"smiles": "COc1nc(C)nc(Cl)c1NC1=NCCN1", "note": "[Moxonidine]", "% Pdx1+ Ins1-low": 1.04}
{"smiles": "CCn1cc(C(=O)O)c(=O)c2cnc(N3CCNCC3)nc21", "note": "[Pipemidic acid]", "% Pdx1+ Ins1-low": 0.555}
{"smiles": "COc1cc2nc(N3CCN(C(=O)c4ccco4)CC3)nc(N)c2cc1OC", "note": "[Prazosin hydrochloride]", "% Pdx1+ Ins1-low": 1.01}
{"smiles": "O=C(CCCN1CC=C(n2c(=O)[nH]c3ccccc32)CC1)c1ccc(F)cc1", "note": "[Droperidol]", "% Pdx1+ Ins1-low": 1.15}
{"smiles": "CCN(CC)CCNC(=O)c1cc(S(C)(=O)=O)ccc1OC", "note": "[Tiapride hydrochloride]", "% Pdx1+ Ins1-low": 0.754}
{"smiles": "CCn1cc(C(=O)O)c(=O)c2ccc(C)nc21", "note": "[Nalidixic acid sodium salt hydrate]", "% Pdx1+ Ins1-low": 1.17}
{"smiles": "Nc1c(O)cccc1C(=O)CC(N)C(=O)O", "note": "(racemic) [Kynurenine, 3-hydroxy (R,S)]", "% Pdx1+ Ins1-low": 1.03}
{"smiles": "COc1ccc2cc(CCC(C)=O)ccc2c1", "note": "[Nabumetone]", "% Pdx1+ Ins1-low": 0.577}
{"smiles": "C#CCN(C)Cc1ccccc1", "note": "[Pargyline hydrochloride]", "% Pdx1+ Ins1-low": 0.532}
{"smiles": "OCCN1CCN(CCCN2c3ccccc3Sc3ccc(Cl)cc32)CC1", "note": "[Perphenazine]", "% Pdx1+ Ins1-low": 0.701}
{"smiles": "OC[C@H]1O[C@@H](Oc2ccc(O)cc2)[C@H](O)[C@@H](O)[C@@H]1O", "note": "[Arbutin]", "% Pdx1+ Ins1-low": 1.19}
{"smiles": "Nc1ccc(S(=O)(=O)c2ccc(N)cc2)cc1", "note": "[Dapsone]", "% Pdx1+ Ins1-low": 0.582}
{"smiles": "COc1ccc(NS(=O)(=O)c2ccc(N)cc2)nn1", "note": "[Sulfamethoxypyridazine]", "% Pdx1+ Ins1-low": 1.22}
{"smiles": "Nc1ccc(C(=O)NCC(=O)O)cc1", "note": "[Aminohippuric acid]", "% Pdx1+ Ins1-low": 0.68}
{"smiles": "Cn1nnnc1SCC1=C(C(=O)O)N2C(=O)[C@@H](NC(=O)[C@H](O)c3ccccc3)[C@H]2SC1", "note": "[Cefamandole sodium salt]", "% Pdx1+ Ins1-low": 0.85}
{"smiles": "N=C(N)NCC1COC2(CCCCC2)O1", "note": "(stereo unspecified) [Guanadrel sulfate]", "% Pdx1+ Ins1-low": 1.15}
{"smiles": "CC1(C)OC(=O)NC1=O", "note": "[Dimethadione]", "% Pdx1+ Ins1-low": 0.6}
{"smiles": "CCCC(=O)Nc1ncnc2c1ncn2[C@@H]1O[C@@H]2COP(=O)(O)O[C@H]2[C@H]1OC(=O)CCC", "note": "[Bucladesine sodium salt]", "% Pdx1+ Ins1-low": 0.618}
{"smiles": "NC(=O)N/N=C/c1ccc([N+](=O)[O-])o1", "note": "[Nitrofural]", "% Pdx1+ Ins1-low": 0.97}
{"smiles": "CN1CCCCC1CCN1c2ccccc2Sc2ccc([S+](C)[O-])cc21", "note": "(stereo unspecified) [Mesoridazine besylate]", "% Pdx1+ Ins1-low": 0.518}
{"smiles": "CO[C@@H]1[C@@H](OC(N)=O)[C@@H](O)[C@H](Oc2ccc3c(O)c(NC(=O)c4ccc(O)c(CC=C(C)C)c4)c(=O)oc3c2C)OC1(C)C", "note": "[Novobiocin sodium salt]", "% Pdx1+ Ins1-low": 0.466}
{"smiles": "CCN1CCN(C(=O)N[C@@H](C(=O)N[C@@H]2C(=O)N3[C@@H]2SC(C)(C)[C@@H]3C(=O)O)c2ccccc2)C(=O)C1=O", "note": "[Piperacillin sodium salt]", "% Pdx1+ Ins1-low": 0.737}
{"smiles": "NNc1nncc2ccccc12", "note": "[Hydralazine hydrochloride]", "% Pdx1+ Ins1-low": 0.732}
{"smiles": "C[C@H](CCC(=O)O)[C@H]1CC[C@H]2[C@@H]3[C@H](O)C[C@@H]4C[C@H](O)CC[C@]4(C)[C@H]3CC[C@]12C", "note": "[Chenodiol]", "% Pdx1+ Ins1-low": 0.741}
{"smiles": "Nc1cc(C(Cl)=C(Cl)Cl)c(S(N)(=O)=O)cc1S(N)(=O)=O", "note": "[Clorsulon]", "% Pdx1+ Ins1-low": 0.785}
{"smiles": "COc1c2occc2c(OC)c2c(=O)cc(C)oc12", "note": "[Khellin]", "% Pdx1+ Ins1-low": 0.718}
{"smiles": "O=c1oc2ccccc2c(O)c1Cc1c(O)c2ccccc2oc1=O", "note": "[Dicumarol]", "% Pdx1+ Ins1-low": 1.46}
{"smiles": "CN1CCN(CCCN2c3ccccc3Sc3ccc(Cl)cc32)CC1", "note": "[Prochlorperazine dimaleate]", "% Pdx1+ Ins1-low": 1.24}
{"smiles": "CNCC(O)c1ccc(OC(=O)C(C)(C)C)c(OC(=O)C(C)(C)C)c1", "note": "(stereo unspecified) [Dipivefrin hydrochloride]", "% Pdx1+ Ins1-low": 0.848}
{"smiles": "CCN(CC)CCc1nc(-c2ccccc2)no1", "note": "[Oxalamine citrate salt]", "% Pdx1+ Ins1-low": 0.903}
{"smiles": "CC(=O)NC1[C@@H](O)OC(CO)[C@@H](O)[C@H]1O[C@H](C)C(=O)O", "note": "(stereo in doubt) [Muramic acid, N-acetyl]", "% Pdx1+ Ins1-low": 1.17}
{"smiles": "CC(C)NC[C@@H](O)COc1cccc2ccccc12", "note": "[(R)-Propranolol hydrochloride]", "% Pdx1+ Ins1-low": 0.967}
{"smiles": "CC[C@]12CCCN3CCc4c(n(c5ccccc45)[C@](O)(C(=O)OC)C1)[C@@H]32", "note": "[Epivincamine]", "% Pdx1+ Ins1-low": 1.4}
{"smiles": "CC(NCCC(c1ccccc1)c1ccccc1)c1ccccc1", "note": "(stereo unspecified) [Fendiline hydrochloride]", "% Pdx1+ Ins1-low": 0.589}
{"smiles": "CN(C)[C@@H]1C(O)=C(C(=O)NCN2CCCC2)C(=O)[C@@]2(O)C(O)=C3C(=O)c4c(O)cccc4[C@@](C)(O)[C@H]3C[C@@H]12", "note": "[Rolitetracycline]", "% Pdx1+ Ins1-low": 0.767}
{"smiles": "Cc1c(N(C)CS(=O)(=O)O)c(=O)n(-c2ccccc2)n1C", "note": "[Dipyrone]", "% Pdx1+ Ins1-low": 1.05}
{"smiles": "CC(C)NCC(O)c1ccc2ccccc2c1", "note": "(stereo unspecified) [Pronethalol hydrochloride]", "% Pdx1+ Ins1-low": 0.602}
{"smiles": "CN(C)c1nc(N(C)C)nc(N(C)C)n1", "note": "[Altretamine]", "% Pdx1+ Ins1-low": 0.983}
{"smiles": "Nc1nc2n[nH]nc2c(=O)[nH]1", "note": "[Azaguanine-8]", "% Pdx1+ Ins1-low": 0.961}
{"smiles": "COc1cc([C@@H]2c3cc4c(cc3[C@@H](O[C@@H]3O[C@@H]5CO[C@@H](C)O[C@H]5[C@H](O)[C@H]3O)[C@H]3COC(=O)[C@H]23)OCO4)cc(OC)c1O", "note": "[Etoposide]", "% Pdx1+ Ins1-low": 0.989}
{"smiles": "CCCNCC(O)COc1ccccc1C(=O)CCc1ccccc1", "note": "(stereo unspecified) [Propafenone hydrochloride]", "% Pdx1+ Ins1-low": 0.64}
{"smiles": "C[C@H]1C[C@@H]2[C@H]([C@@H](O)C[C@@]3(C)[C@H]2CC[C@]3(O)C(=O)CO)[C@@]2(C)C=CC(=O)C=C12", "note": "[Methylprednisolone, 6-alpha]", "% Pdx1+ Ins1-low": 1.14}
{"smiles": "CN1CC[C@]23c4ccccc4N[C@H]1[C@]21CCN(C)[C@H]3Nc2ccccc21", "note": "[Calycanthine]", "% Pdx1+ Ins1-low": 0.987}
{"smiles": "c1ccc2c3c([nH]c2c1)C1C2CCC(C4CCCNC42)N1CC3", "note": "(stereo unspecified) [Nitrarine dihydrochloride]", "% Pdx1+ Ins1-low": 1.07}
{"smiles": "CC[N+]1(C)C2CCC1CC(OC(=O)C1CCC(C(=O)OC3CC4CCC(C3)[N+]4(C)CC)(c3ccccc3)c3ccccc31)C2", "note": "(stereo not drawn) [beta- Belladonnine dichloroethylate]", "% Pdx1+ Ins1-low": 1.16}
{"smiles": "COc1ccc(C2CNC(=O)C2)cc1OC1CCCC1", "note": "(stereo unspecified) [Rolipram]", "% Pdx1+ Ins1-low": 0.61}
{"smiles": "CCOC(=O)Oc1c(OC)cc(C(=O)O[C@@H]2C[C@@H]3CN4CCc5c([nH]c6cc(OC)ccc56)[C@H]4C[C@@H]3[C@H](C(=O)OC)[C@H]2OC)cc1OC", "note": "[Syrosingopine]", "% Pdx1+ Ins1-low": 1.15}
{"smiles": "O=C1OCCN1/N=C/c1ccc([N+](=O)[O-])o1", "note": "[Furazolidone]", "% Pdx1+ Ins1-low": 0.704}
{"smiles": "O=C1C[C@@H](c2ccc(O)cc2)Oc2cc(O)cc(O)c21", "note": "[Naringenine]", "% Pdx1+ Ins1-low": 1.15}
{"smiles": "CCC(=O)O[C@]1(C(=O)CCl)[C@@H](C)C[C@H]2[C@@H]3CCC4=CC(=O)C=C[C@]4(C)[C@@]3(F)[C@@H](O)C[C@@]21C", "note": "[Clobetasol propionate]", "% Pdx1+ Ins1-low": 1.36}
{"smiles": "c1ccc([C@H]2CN3CCSC3=N2)cc1", "note": "[Levamisole hydrochloride]", "% Pdx1+ Ins1-low": 1.08}
{"smiles": "O=S(=O)(O)c1cc(O)ccc1O", "note": "[Ethamsylate]", "% Pdx1+ Ins1-low": 0.741}
{"smiles": "CC1Cc2ccccc2N1NC(=O)c1ccc(Cl)c(S(N)(=O)=O)c1", "note": "(stereo unspecified) [Indapamide]", "% Pdx1+ Ins1-low": 0.762}
{"smiles": "Nc1ccc(S(=O)(=O)Nc2ccnn2-c2ccccc2)cc1", "note": "[Sulfaphenazole]", "% Pdx1+ Ins1-low": 1.04}
{"smiles": "O=C(NCC(O)CO)c1c(I)c(C(=O)NCC(O)CO)c(I)c(N(CCO)C(=O)CO)c1I", "note": "(stereo unspecified) [Ioversol]", "% Pdx1+ Ins1-low": 0.85}
{"smiles": "CO/N=C(\\C(=O)N[C@@H]1C(=O)N2C(C(=O)O)=C(COC(N)=O)CS[C@H]12)c1ccco1", "note": "[Cefuroxime sodium salt]", "% Pdx1+ Ins1-low": 0.614}
{"smiles": "Cc1cc(CC(=O)O)n(C)c1C(=O)c1ccc(Cl)cc1", "note": "[Zomepirac sodium salt]", "% Pdx1+ Ins1-low": 0.97}
{"smiles": "O=C1CC2(CCCC2)CC(=O)N1CCCCN1CCN(c2ncccn2)CC1", "note": "[Buspirone hydrochloride]", "% Pdx1+ Ins1-low": 1.38}
{"smiles": "CC[C@H]1OC(=O)[C@H](C)[C@@H](O[C@H]2C[C@@](C)(OC)[C@@H](O)[C@H](C)O2)[C@H](C)[C@@H](O[C@@H]2O[C@H](C)C[C@H](N(C)C)[C@H]2O)[C@](C)(O)C[C@@H](C)[C@@H]2N[C@@H](COCCOC)O[C@H]([C@H]2C)[C@]1(C)O", "note": "[Dirithromycin]", "% Pdx1+ Ins1-low": 1.26}
{"smiles": "CC(C)CC(=O)N[C@H](C(=O)N[C@H](C(=O)N[C@@H](CC(C)C)[C@@H](O)CC(=O)N[C@@H](C)C(=O)N[C@@H](CC(C)C)[C@@H](O)CC(=O)O)C(C)C)C(C)C", "note": "[Pepstatin A]", "% Pdx1+ Ins1-low": 1.05}
{"smiles": "C[C@H](O)C(=O)Nc1c(I)c(C(=O)NC(CO)CO)c(I)c(C(=O)NC(CO)CO)c1I", "note": "[Iopamidol]", "% Pdx1+ Ins1-low": 0.676}
{"smiles": "CC1=Nc2ccc(Cl)cc2S(=O)(=O)N1", "note": "[Diazoxide]", "% Pdx1+ Ins1-low": 1.1}
